Measurements as given in patent US11690833B2, “Personal care compositions” (priority 2017, dated 2023).

Conditions: room temperature

Structure (SMILES) | concentration up to which readily soluble in water [weight %] | concentration producing a translucent gel or soft-solid material in water
[Cl-].[Cl-].[Zn+2] [ZnCl2, zinc chloride] | ≥ 75 | 
CCCCCCCCCCCCCCCC[n+]1ccccc1 [CPC, cetylpyridinium chloride, reference compound] | ≥ 25 | greater than 40 weight %
